Results taken from the supplement of paper PMC10849652.
This is one part of the list.

By UniProt entry, the sequences of proteins in these tests, tags left out. Where a name states a change or a piece, a line headed by the entry shows the natural chain unless it says otherwise.
UniProt Q8N2A8: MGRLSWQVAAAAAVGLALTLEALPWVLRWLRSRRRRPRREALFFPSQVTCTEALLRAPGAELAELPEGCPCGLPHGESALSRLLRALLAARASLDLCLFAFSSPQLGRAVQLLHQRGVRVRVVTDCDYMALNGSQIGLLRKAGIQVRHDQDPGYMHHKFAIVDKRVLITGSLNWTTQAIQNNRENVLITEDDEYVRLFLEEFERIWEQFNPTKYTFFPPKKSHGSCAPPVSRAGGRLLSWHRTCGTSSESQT
UniProt Q99569: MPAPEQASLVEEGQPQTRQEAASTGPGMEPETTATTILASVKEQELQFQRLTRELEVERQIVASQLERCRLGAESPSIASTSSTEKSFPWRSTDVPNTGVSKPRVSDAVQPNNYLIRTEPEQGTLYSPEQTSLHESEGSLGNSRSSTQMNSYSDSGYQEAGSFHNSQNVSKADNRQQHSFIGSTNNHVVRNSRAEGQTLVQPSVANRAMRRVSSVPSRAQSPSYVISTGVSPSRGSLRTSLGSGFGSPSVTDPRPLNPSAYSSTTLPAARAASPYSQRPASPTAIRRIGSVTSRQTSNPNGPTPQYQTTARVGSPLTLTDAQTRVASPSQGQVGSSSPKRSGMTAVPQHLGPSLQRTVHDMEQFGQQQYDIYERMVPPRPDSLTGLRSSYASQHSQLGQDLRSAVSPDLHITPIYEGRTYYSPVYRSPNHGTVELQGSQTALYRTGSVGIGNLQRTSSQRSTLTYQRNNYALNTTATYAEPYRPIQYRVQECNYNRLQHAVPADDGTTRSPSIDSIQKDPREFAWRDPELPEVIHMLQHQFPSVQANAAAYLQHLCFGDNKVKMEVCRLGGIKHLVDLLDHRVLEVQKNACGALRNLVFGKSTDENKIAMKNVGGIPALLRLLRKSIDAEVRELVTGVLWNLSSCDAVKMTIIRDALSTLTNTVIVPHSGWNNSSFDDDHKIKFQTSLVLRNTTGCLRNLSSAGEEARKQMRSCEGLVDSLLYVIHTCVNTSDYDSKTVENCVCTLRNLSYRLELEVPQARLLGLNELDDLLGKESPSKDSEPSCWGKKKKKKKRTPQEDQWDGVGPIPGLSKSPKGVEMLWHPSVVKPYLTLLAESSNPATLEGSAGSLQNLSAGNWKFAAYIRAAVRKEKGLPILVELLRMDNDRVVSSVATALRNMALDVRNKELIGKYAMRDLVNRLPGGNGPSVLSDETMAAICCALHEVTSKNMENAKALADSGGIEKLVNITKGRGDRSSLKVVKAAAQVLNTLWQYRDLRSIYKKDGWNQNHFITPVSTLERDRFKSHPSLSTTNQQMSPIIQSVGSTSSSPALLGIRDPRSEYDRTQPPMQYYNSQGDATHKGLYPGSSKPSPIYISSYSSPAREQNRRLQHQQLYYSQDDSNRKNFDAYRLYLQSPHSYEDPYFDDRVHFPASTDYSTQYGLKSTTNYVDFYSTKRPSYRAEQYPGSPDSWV
UniProt Q8TBF5: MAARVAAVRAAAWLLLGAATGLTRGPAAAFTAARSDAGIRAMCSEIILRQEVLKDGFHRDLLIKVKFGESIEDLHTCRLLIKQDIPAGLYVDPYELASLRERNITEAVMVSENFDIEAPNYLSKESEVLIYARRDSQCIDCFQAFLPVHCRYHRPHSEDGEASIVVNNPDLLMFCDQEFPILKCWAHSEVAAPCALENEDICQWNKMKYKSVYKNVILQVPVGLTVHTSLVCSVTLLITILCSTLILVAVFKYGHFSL
UniProt Q9HB20: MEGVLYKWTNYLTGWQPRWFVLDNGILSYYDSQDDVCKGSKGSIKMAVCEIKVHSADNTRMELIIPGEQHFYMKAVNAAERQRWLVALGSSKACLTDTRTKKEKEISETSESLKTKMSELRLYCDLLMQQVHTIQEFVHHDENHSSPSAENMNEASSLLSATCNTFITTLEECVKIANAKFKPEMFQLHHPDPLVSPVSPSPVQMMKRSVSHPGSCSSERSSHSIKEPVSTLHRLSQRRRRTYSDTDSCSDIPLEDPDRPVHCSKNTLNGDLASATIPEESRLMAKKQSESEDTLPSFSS
UniProt O00562: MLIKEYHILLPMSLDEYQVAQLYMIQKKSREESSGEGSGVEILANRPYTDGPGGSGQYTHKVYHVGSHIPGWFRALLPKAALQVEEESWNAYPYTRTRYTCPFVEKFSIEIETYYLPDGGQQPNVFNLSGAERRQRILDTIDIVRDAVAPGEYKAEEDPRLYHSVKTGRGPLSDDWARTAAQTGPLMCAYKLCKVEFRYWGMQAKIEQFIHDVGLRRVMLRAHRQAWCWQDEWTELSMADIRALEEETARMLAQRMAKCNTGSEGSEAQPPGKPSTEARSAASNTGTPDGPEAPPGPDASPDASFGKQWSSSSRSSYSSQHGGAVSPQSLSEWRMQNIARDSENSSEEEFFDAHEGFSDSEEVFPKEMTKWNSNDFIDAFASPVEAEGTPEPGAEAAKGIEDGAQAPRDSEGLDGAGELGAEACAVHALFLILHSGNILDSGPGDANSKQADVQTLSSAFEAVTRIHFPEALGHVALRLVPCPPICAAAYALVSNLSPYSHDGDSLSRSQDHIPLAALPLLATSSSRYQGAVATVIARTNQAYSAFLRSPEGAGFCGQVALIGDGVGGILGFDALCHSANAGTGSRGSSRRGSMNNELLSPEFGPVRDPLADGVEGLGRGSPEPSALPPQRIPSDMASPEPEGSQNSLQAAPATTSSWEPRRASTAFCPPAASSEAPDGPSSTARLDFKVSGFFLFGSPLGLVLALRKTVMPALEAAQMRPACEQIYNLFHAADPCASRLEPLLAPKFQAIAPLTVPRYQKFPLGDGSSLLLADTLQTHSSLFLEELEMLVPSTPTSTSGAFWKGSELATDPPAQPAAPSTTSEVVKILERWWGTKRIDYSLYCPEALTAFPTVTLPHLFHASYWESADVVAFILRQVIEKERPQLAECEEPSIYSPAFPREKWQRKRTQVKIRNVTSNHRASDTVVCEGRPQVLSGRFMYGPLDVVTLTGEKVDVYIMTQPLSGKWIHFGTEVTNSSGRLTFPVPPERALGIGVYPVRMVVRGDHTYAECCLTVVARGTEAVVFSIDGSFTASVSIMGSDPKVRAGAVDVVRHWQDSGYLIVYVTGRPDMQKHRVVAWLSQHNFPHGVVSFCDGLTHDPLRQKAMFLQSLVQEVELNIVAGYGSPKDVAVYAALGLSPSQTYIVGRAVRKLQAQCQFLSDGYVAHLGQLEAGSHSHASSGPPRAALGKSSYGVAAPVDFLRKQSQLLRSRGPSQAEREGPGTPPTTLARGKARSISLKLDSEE
UniProt Q8IXK0: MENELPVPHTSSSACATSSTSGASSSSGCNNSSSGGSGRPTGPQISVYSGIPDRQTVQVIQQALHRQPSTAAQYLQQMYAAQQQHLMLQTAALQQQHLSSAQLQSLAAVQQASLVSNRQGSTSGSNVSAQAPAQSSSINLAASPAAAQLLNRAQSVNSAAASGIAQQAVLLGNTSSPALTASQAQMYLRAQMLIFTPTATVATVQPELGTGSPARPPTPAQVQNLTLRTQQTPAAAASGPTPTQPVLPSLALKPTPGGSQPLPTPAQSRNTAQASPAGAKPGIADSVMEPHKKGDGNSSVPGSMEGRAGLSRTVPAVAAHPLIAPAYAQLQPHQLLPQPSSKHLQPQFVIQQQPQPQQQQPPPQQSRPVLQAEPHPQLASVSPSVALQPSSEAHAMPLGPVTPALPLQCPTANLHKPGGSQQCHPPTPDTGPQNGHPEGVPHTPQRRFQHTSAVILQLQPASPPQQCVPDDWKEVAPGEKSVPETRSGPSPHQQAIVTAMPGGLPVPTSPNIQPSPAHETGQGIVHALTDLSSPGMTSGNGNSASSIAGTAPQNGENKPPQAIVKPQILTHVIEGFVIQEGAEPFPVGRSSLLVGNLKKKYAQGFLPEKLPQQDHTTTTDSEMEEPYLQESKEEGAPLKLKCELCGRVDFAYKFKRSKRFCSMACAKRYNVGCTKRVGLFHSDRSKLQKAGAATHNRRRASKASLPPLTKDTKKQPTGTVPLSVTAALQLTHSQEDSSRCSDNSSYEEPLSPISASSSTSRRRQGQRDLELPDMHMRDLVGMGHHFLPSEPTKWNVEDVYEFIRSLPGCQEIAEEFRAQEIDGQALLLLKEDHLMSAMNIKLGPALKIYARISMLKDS
UniProt P07205: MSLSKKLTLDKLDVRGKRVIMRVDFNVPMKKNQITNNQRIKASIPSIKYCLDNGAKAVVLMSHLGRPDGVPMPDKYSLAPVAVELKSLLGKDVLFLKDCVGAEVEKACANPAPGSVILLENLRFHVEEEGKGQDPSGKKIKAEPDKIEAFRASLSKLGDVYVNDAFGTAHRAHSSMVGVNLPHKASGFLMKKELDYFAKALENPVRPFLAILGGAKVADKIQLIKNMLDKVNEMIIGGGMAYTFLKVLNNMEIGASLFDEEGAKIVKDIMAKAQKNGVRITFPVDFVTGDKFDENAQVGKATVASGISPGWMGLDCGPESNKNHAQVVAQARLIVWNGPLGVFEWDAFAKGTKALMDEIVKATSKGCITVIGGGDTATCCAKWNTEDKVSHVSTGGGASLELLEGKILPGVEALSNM
UniProt Q9BVI0: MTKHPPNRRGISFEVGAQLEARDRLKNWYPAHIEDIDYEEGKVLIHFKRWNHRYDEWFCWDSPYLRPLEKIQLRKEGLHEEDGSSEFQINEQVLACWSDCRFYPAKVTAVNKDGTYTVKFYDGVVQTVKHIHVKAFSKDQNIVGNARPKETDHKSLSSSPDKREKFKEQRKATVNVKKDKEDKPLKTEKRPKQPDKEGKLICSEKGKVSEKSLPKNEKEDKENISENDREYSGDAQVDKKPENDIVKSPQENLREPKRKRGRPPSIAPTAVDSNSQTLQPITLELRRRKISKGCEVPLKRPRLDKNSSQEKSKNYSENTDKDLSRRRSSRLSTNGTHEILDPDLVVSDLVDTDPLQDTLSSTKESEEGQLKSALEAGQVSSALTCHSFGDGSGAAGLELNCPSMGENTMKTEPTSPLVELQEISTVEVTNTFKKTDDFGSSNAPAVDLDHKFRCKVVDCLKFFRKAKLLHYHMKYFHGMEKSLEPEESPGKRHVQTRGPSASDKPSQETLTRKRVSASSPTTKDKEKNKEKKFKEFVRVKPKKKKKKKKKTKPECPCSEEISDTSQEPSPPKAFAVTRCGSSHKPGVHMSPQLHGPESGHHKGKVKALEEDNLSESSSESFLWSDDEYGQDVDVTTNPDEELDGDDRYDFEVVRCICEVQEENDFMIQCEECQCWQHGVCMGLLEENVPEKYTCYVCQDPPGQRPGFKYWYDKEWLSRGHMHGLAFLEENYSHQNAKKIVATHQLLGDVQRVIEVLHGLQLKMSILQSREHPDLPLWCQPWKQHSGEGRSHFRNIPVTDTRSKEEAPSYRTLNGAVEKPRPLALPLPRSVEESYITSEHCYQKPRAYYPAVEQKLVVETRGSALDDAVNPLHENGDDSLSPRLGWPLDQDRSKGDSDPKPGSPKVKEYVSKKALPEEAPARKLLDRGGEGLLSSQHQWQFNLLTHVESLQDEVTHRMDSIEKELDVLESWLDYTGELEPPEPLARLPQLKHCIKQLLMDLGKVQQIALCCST
UniProt P78364: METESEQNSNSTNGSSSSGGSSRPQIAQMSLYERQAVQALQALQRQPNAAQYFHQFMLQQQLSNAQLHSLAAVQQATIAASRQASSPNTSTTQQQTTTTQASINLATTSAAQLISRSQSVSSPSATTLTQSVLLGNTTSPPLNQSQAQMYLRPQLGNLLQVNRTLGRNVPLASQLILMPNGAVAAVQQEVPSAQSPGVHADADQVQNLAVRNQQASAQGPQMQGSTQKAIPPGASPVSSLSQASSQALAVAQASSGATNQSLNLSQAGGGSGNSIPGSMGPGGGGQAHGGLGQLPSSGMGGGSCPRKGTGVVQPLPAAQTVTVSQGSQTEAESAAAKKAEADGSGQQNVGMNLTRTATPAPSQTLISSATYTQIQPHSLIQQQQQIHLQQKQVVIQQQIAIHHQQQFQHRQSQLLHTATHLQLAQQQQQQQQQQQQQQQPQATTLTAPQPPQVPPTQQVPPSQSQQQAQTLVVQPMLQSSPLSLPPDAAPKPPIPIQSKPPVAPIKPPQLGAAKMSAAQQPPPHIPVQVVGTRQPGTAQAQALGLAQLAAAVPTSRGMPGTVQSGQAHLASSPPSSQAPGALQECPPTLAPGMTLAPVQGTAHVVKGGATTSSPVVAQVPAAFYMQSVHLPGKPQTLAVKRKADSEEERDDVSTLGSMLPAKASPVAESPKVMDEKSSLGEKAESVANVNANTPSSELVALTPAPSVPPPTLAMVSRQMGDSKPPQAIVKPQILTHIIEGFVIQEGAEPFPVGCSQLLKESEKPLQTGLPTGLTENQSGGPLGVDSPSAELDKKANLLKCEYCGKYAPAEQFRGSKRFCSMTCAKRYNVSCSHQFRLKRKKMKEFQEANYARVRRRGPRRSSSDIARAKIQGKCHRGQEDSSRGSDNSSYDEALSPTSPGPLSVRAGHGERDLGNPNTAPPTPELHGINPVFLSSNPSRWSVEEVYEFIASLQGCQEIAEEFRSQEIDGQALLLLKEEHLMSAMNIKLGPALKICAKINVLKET

Experiments:
Test in all cases: log2 fold change, soluble protein after heating vs DMSO (PISA); higher = thermal stabilisation; K562 lysate, 10 uM; active = over 0.2 and 3.5 SD of the protein, either way, in both replicates (recomputed)
[1] = compound: CC1=C(C2=C(C=C1)C(=O)C3=CC=CC=C3N2CCCN)C
How it was run: (§1)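 Soluble protein was defined as the supernatant remaining after 21,000xg for 90 min, following pooling of heated aliquots and adjustment to 0.5% NP-40 at 4°C. Before that, crude K562 extract at 1 mg/mL protein in PBS pH 7.4 with 1 mM MgCl2 was treated with 10 μM compound for 30 min and heated for 3 min across 48°C-58°C. Quantification used TMTpro 16plex LC-MS/MS with channel sums equalised, and values are log-two fold changes in thermal stability relative to solvent controls from duplicates.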

[2] = compound: C/C(=N\NC(=O)C1=CC(=CC=C1)S(=O)(=O)N2CCOCC2)/C3=C(C=CC(=C3)Cl)O
How it was run: as §1

[3] = compound: C1=CC2=C(C=CC(=C2)/C=C\3/C(=O)NC(=NCC4=CC=CS4)S3)N=C1
How it was run: as §1

[4] = compound: C1=CC2=NC=CN=C2C=C1/C=C/3\C(=O)NC(=O)S3
How it was run: as §1

[5] = compound: C1=CC=C2C(=C1)C3=NNC4=CC=CC(=C43)C2=O
How it was run: as §1

[6] = compound: C1CCN(C1)C(=O)NC2=CC=CC(=C2)NC3=NC=C(C(=N3)NCCC4=CN=CN4)Br
How it was run: as §1

[7] = compound: C1CN(CCC1(CC2=CC=C(C=C2)Cl)N)C3=NC=NC4=C3C=CN4
How it was run: as §1

ibrutinib = compound: C=CC(=O)N1CCC[C@@H](n2nc(-c3ccc(Oc4ccccc4)cc3)c3c(N)ncnc32)C1 [ibrutinib]
How it was run: as §1

[8] = compound: CC1=C(C=C(C=C1)NC(=O)C2=CC(=CC=C2)C(C)(C)C#N)NC3=CC4=C(C=C3)N=CN(C4=O)C
How it was run: as §1

[9] = compound: C1=CC=C(C=C1)C2=NC(=C(N2)C3=CC=NC=C3)C4=CC(=C(C=C4)Cl)O
How it was run: as §1

IRAK-1-4 Inhibitor I = compound: C1COCCN1CCN2C3=CC=CC=C3N=C2NC(=O)C4=CC(=CC=C4)[N+](=O)[O-] [IRAK-1-4 Inhibitor I]
How it was run: as §1

ralimetinib = compound: CC(C)(C)Cn1c(N)nc2ccc(-c3[nH]c(C(C)(C)C)nc3-c3ccc(F)cc3)nc21 [ralimetinib]
How it was run: as §1

[10] = compound: CC(C)(O)CC(=O)NCCn1ccc2ncnc(Nc3ccc(Oc4cccc(C(F)(F)F)c4)c(Cl)c3)c21
How it was run: as §1

[11] = compound: CC1=C(C=C(C=C1)NC(=O)C2=CC(=CC=C2)N(C)C)NC(=O)C3=CC=C(C=C3)O
How it was run: as §1

[12] = compound: CC(=O)c1cnc2ccc(-c3cc(Cl)c(O)c(Cl)c3)nc2c1N[C@H]1CC[C@H](CN(C)C)CC1
How it was run: as §1

[13] = compound: CC1=C(C(CC(=O)N1)C2=CC=C(C=C2)C(F)(F)F)C(=O)NC3=C(C=C4C(=C3)C=NN4)F
How it was run: as §1

[14] = compound: CC1=CC=C(C=C1)SC2=C3C=C(SC3=CN=C2)C(=O)N
How it was run: as §1

**Q.** How did the log2 fold change [1] turn out when PLD6 (UniProt Q8N2A8) was run?
**A.** Its log2 fold change is inactive: 0.015.

**Q.** PITX1 (UniProt P78337) was tested. Which log2 fold change [2] did it give?
**A.** Its log2 fold change is inactive: 0.097.

**Q.** What about the log2 fold change [3] of the same target?
**A.** Its log2 fold change is inactive: 0.013.

**Q.** And the log2 fold change [4]?
**A.** The log2 fold change was inactive: -0.069.

**Q.** And the log2 fold change [5]?
**A.** The log2 fold change was inactive: -0.157.

**Q.** And the log2 fold change [6]?
**A.** Its log2 fold change is inactive: -0.101.

**Q.** And the log2 fold change [7]?
**A.** The log2 fold change was inactive: 0.054.

**Q.** And the log2 fold change (ibrutinib)?
**A.** Its log2 fold change is inactive: 0.001.

**Q.** What about the log2 fold change [1] of the same target?
**A.** Its log2 fold change is inactive: -0.027.

**Q.** And the log2 fold change [8]?
**A.** Its log2 fold change is inactive: -0.028.

**Q.** With PKP4 (UniProt Q99569) as the target, how does the log2 fold change [9] read?
**A.** Its log2 fold change is inactive: 0.027.

**Q.** What about the log2 fold change [6] of the same target?
**A.** The log2 fold change was inactive: 0.062.

**Q.** What about the log2 fold change [7] of the same target?
**A.** The log2 fold change was inactive: 0.035.

**Q.** What about the log2 fold change (IRAK-1-4 Inhibitor I) of the same target?
**A.** The log2 fold change was inactive: -0.03.

**Q.** And the log2 fold change (ralimetinib)?
**A.** The log2 fold change was inactive: 0.005.

**Q.** And the log2 fold change [10]?
**A.** Its log2 fold change is inactive: -0.044.

**Q.** What about the log2 fold change [1] of the same target?
**A.** The log2 fold change was inactive: 0.084.

**Q.** And the log2 fold change [11]?
**A.** The log2 fold change was inactive: -0.012.

**Q.** How did the log2 fold change [4] turn out when PIGX isoform 2 (UniProt Q8TBF5) was run?
**A.** Its log2 fold change is inactive: 0.023.

**Q.** What about the log2 fold change [9] of the same target?
**A.** Its log2 fold change is inactive: -0.004.

**Q.** And the log2 fold change [6]?
**A.** The log2 fold change was inactive: -0.164.

**Q.** What about the log2 fold change [7] of the same target?
**A.** Its log2 fold change is inactive: 0.02.

**Q.** What about the log2 fold change (IRAK-1-4 Inhibitor I) of the same target?
**A.** Its log2 fold change is inactive: 0.068.

**Q.** And the log2 fold change (ibrutinib)?
**A.** The log2 fold change was inactive: -0.007.

**Q.** And the log2 fold change [12]?
**A.** The log2 fold change was inactive: 0.133.

**Q.** And the log2 fold change (ralimetinib)?
**A.** The log2 fold change was inactive: 0.082.

**Q.** What about the log2 fold change [10] of the same target?
**A.** The log2 fold change was inactive: -0.259.

**Q.** What about the log2 fold change [13] of the same target?
**A.** Its log2 fold change is inactive: -0.112.

**Q.** And the log2 fold change [1]?
**A.** Its log2 fold change is inactive: 0.036.

**Q.** What about the log2 fold change [8] of the same target?
**A.** The log2 fold change was inactive: 0.107.

**Q.** What about the log2 fold change [11] of the same target?
**A.** The log2 fold change was inactive: 0.167.

**Q.** What about the log2 fold change [14] of the same target?
**A.** The log2 fold change was inactive: 0.044.

**Q.** With PLEKHA3 (UniProt Q9HB20) as the target, how does the log2 fold change [9] read?
**A.** Its log2 fold change is inactive: -0.007.

**Q.** What about the log2 fold change (IRAK-1-4 Inhibitor I) of the same target?
**A.** Its log2 fold change is inactive: 0.026.

**Q.** And the log2 fold change (ralimetinib)?
**A.** The log2 fold change was inactive: 0.045.

**Q.** And the log2 fold change [10]?
**A.** The log2 fold change was inactive: -0.049.

**Q.** What about the log2 fold change [13] of the same target?
**A.** Its log2 fold change is inactive: 0.004.

**Q.** What about the log2 fold change [1] of the same target?
**A.** The log2 fold change was inactive: 0.08.

**Q.** What about the log2 fold change [8] of the same target?
**A.** The log2 fold change was inactive: 0.025.

**Q.** And the log2 fold change [11]?
**A.** The log2 fold change was inactive: -0.032.

**Q.** Which log2 fold change [4] does the source give for PITPNM1 (UniProt O00562) here?
**A.** The log2 fold change was inactive: 0.169.

**Q.** And the log2 fold change [9]?
**A.** The log2 fold change was inactive: -0.249.

**Q.** And the log2 fold change (IRAK-1-4 Inhibitor I)?
**A.** The log2 fold change was inactive: 0.006.

**Q.** And the log2 fold change (ibrutinib)?
**A.** Its log2 fold change is inactive: 0.045.

**Q.** And the log2 fold change (ralimetinib)?
**A.** Its log2 fold change is inactive: 0.17.

**Q.** And the log2 fold change [10]?
**A.** Its log2 fold change is inactive: -0.007.

**Q.** And the log2 fold change [13]?
**A.** The log2 fold change was inactive: -0.048.

**Q.** What about the log2 fold change [8] of the same target?
**A.** The log2 fold change was inactive: 0.103.

**Q.** And the log2 fold change [11]?
**A.** Its log2 fold change is inactive: 0.118.

**Q.** How did the log2 fold change [13] turn out when PIWIL4 (UniProt Q7Z3Z4) was run?
**A.** Its log2 fold change is inactive: 0.049.

**Q.** Which log2 fold change [9] does the source give for PIDD1 (UniProt Q9HB75) here?
**A.** The log2 fold change was inactive: 0.111.

**Q.** And the log2 fold change (IRAK-1-4 Inhibitor I)?
**A.** Its log2 fold change is inactive: 0.166.

**Q.** What about the log2 fold change (ralimetinib) of the same target?
**A.** Its log2 fold change is inactive: 0.024.

**Q.** What about the log2 fold change [10] of the same target?
**A.** The log2 fold change was inactive: 0.003.

**Q.** And the log2 fold change [1]?
**A.** Its log2 fold change is inactive: 0.136.

**Q.** And the log2 fold change [11]?
**A.** Its log2 fold change is inactive: -0.049.

**Q.** Which log2 fold change [12] does the source give for PIGT, A0A1W2PP13 here?
**A.** The log2 fold change was inactive: -0.028.

**Q.** And the log2 fold change [13]?
**A.** The log2 fold change was inactive: -0.003.

**Q.** And the log2 fold change [14]?
**A.** The log2 fold change was inactive: -0.056.

**Q.** What does the source list for PHC2 isoform 5 (UniProt Q8IXK0)?
**A.** log2 fold change [2]: inactive: -0.207; log2 fold change [3]: inactive: 0.089; log2 fold change [5]: inactive: 0.002; log2 fold change [6]: inactive: -0.062; log2 fold change [7]: inactive: 0.082; log2 fold change [13]: inactive: 0.063; log2 fold change [8]: inactive: -0.016

**Q.** With PGK2 (UniProt P07205) as the target, how does the log2 fold change [2] read?
**A.** The log2 fold change was inactive: 0.059.

**Q.** And the log2 fold change [3]?
**A.** The log2 fold change was inactive: 0.127.

**Q.** What about the log2 fold change [9] of the same target?
**A.** The log2 fold change was inactive: -0.022.

**Q.** What about the log2 fold change [5] of the same target?
**A.** The log2 fold change was inactive: -0.003.

**Q.** What about the log2 fold change [6] of the same target?
**A.** The log2 fold change was inactive: -0.207.

**Q.** What about the log2 fold change [7] of the same target?
**A.** The log2 fold change was inactive: -0.034.

**Q.** And the log2 fold change (IRAK-1-4 Inhibitor I)?
**A.** Its log2 fold change is inactive: -0.085.

**Q.** What about the log2 fold change [12] of the same target?
**A.** The log2 fold change was inactive: -0.068.

**Q.** And the log2 fold change (ralimetinib)?
**A.** The log2 fold change was inactive: 0.048.

**Q.** And the log2 fold change [10]?
**A.** Its log2 fold change is inactive: 0.036.

**Q.** What about the log2 fold change [11] of the same target?
**A.** Its log2 fold change is inactive: -0.055.

**Q.** What about the log2 fold change [14] of the same target?
**A.** Its log2 fold change is inactive: 0.017.

**Q.** How did the log2 fold change [9] turn out when PHF20 (UniProt Q9BVI0) was run?
**A.** Its log2 fold change is inactive: -0.035.

**Q.** What about the log2 fold change (IRAK-1-4 Inhibitor I) of the same target?
**A.** Its log2 fold change is inactive: 0.01.

**Q.** What about the log2 fold change (ralimetinib) of the same target?
**A.** Its log2 fold change is inactive: -0.092.

**Q.** What about the log2 fold change [10] of the same target?
**A.** The log2 fold change was inactive: -0.036.

**Q.** And the log2 fold change [8]?
**A.** Its log2 fold change is inactive: -0.086.

**Q.** What about the log2 fold change [11] of the same target?
**A.** The log2 fold change was inactive: -0.046.

**Q.** PHC1 (UniProt P78364) was tested. Which log2 fold change [2] did it give?
**A.** Its log2 fold change is inactive: 0.032.

**Q.** What about the log2 fold change [3] of the same target?
**A.** Its log2 fold change is inactive: -0.004.

**Q.** And the log2 fold change [4]?
**A.** The log2 fold change was inactive: -0.075.

**Q.** And the log2 fold change [5]?
**A.** Its log2 fold change is inactive: -0.051.

**Q.** What about the log2 fold change [6] of the same target?
**A.** The log2 fold change was inactive: 0.021.

**Q.** What about the log2 fold change [7] of the same target?
**A.** Its log2 fold change is inactive: -0.01.

**Q.** What about the log2 fold change (ibrutinib) of the same target?
**A.** Its log2 fold change is inactive: 0.027.

**Q.** What about the log2 fold change [13] of the same target?
**A.** Its log2 fold change is inactive: 0.044.

**Q.** What about the log2 fold change [1] of the same target?
**A.** Its log2 fold change is inactive: -0.117.

**Q.** And the log2 fold change [8]?
**A.** Its log2 fold change is active: 0.443.
